Experimental data from PubChem BioAssay AID188 (DTP/NCI, 2004).
The mice bore no tumour; each value counts animals alive of those treated. Counts of survivors are from the toxicity check (mostly the fifth day) where no day follows; animals may have died later. Schedule codes are those of the source, taken here to give the interval after Q, in days (D) or hours (H), and the number of doses after X.

System: CD2F1 mice, nontumored, toxicity/survival
Assay: NCI In Vivo Anticancer Drug Screen. Data for tumor model Nontumored Animals (Toxicity Test) in CD2F1 (CDF1) mice

In the case of c1cc2n(n1)CCN2, the survivor count (dose: 8.0 mg/kg/injection, schedule: Q03HX008 (ip), vehicle: saline) is reported as 8 of 8, the survivor count (dose: 8.0 mg/kg/injection, schedule: Q03HX016 (ip), vehicle: saline) is reported as 7 of 8 and the survivor count (dose: 8.0 mg/kg/injection, schedule: Q03HX024 (ip), vehicle: saline) is reported as 8 of 8. For the same compound, the survivor count (dose: 16.0 mg/kg/injection, schedule: Q03HX008 (ip), vehicle: saline) was 7 of 8, the survivor count (dose: 16.0 mg/kg/injection, schedule: Q03HX016 (ip), vehicle: saline) was 8 of 8 and the survivor count (dose: 16.0 mg/kg/injection, schedule: Q03HX024 (ip), vehicle: saline) was 8 of 8. The survivor count (dose: 32.0 mg/kg/injection, schedule: Q01DX005 (ip), vehicle: saline) was 8 of 8, the survivor count (dose: 32.0 mg/kg/injection, schedule: Q03HX008 (ip), vehicle: saline) was 7 of 8 and the survivor count (dose: 32.0 mg/kg/injection, schedule: Q03HX016 (ip), vehicle: saline) was 6 of 8. The survivor count (dose: 32.0 mg/kg/injection, schedule: Q03HX024 (ip), vehicle: saline) was 8 of 8, the survivor count (dose: 50.0 mg/kg/injection, schedule: Q08DX002 (ip), vehicle: clinical formulation) was 8 of 8 and the survivor count (dose: 50.0 mg/kg/injection, schedule: Q08DX002 (ip), vehicle: water) was 8 of 8. The survivor count (dose: 64.0 mg/kg/injection, schedule: Q01DX005 (ip), vehicle: saline) was 8 of 8, the survivor count (dose: 64.0 mg/kg/injection, schedule: Q01DX009 (ip), vehicle: saline) was 8 of 8 and the survivor count (dose: 64.0 mg/kg/injection, schedule: Q03HX008 (ip), vehicle: saline) was 6 of 8. The survivor count (dose: 64.0 mg/kg/injection, schedule: Q03HX016 (ip), vehicle: saline) was 7 of 8, the survivor count (dose: 64.0 mg/kg/injection, schedule: Q03HX024 (ip), vehicle: saline) was 8 of 8 and the survivor count (dose: 100.0 mg/kg/injection, schedule: Q08DX002 (ip), vehicle: clinical formulation) was 8 of 8. The survivor count (dose: 100.0 mg/kg/injection, schedule: Q08DX002 (ip), vehicle: water) was 8 of 8, the survivor count (dose: 128.0 mg/kg/injection, schedule: Q01DX001 (ip), vehicle: saline) was 8 of 8 and the survivor count (dose: 128.0 mg/kg/injection, schedule: Q01DX005 (ip), vehicle: saline) was 8 of 8. For the same compound, the survivor count (dose: 128.0 mg/kg/injection, schedule: Q01DX009 (ip), vehicle: saline) was 8 of 8, the survivor count (dose: 128.0 mg/kg/injection, schedule: Q03HX008 (ip), vehicle: saline) was 0 of 8 and the survivor count (dose: 128.0 mg/kg/injection, schedule: Q03HX016 (ip), vehicle: saline) was 2 of 8. The survivor count (dose: 128.0 mg/kg/injection, schedule: Q03HX024 (ip), vehicle: saline) was 1 of 8, the survivor count (dose: 128.0 mg/kg/injection, schedule: Q04DX003 (ip), vehicle: saline) was 8 of 8 and the survivor count (dose: 128.0 mg/kg/injection, schedule: Q08DX002 (ip), vehicle: saline) was 8 of 8. For the same compound, the survivor count (dose: 200.0 mg/kg/injection, schedule: Q08DX002 (ip), vehicle: clinical formulation) was 8 of 8, the survivor count (dose: 200.0 mg/kg/injection, schedule: Q08DX002 (ip), vehicle: water) was 8 of 8 and the survivor count (dose: 256.0 mg/kg/injection, schedule: Q01DX001 (ip), vehicle: saline) was 7 of 8. For the same compound, the survivor count (dose: 256.0 mg/kg/injection, schedule: Q01DX005 (ip), vehicle: saline) was 8 of 8, the survivor count (dose: 256.0 mg/kg/injection, schedule: Q01DX009 (ip), vehicle: saline) was 8 of 8 and the survivor count (dose: 256.0 mg/kg/injection, schedule: Q04DX003 (ip), vehicle: saline) was 8 of 8. The survivor count (dose: 256.0 mg/kg/injection, schedule: Q08DX002 (ip), vehicle: saline) was 8 of 8, the survivor count (dose: 400.0 mg/kg/injection, schedule: Q08DX002 (ip), vehicle: clinical formulation) was 8 of 8 and the survivor count (dose: 400.0 mg/kg/injection, schedule: Q08DX002 (ip), vehicle: water) was 8 of 8. The survivor count (dose: 512.0 mg/kg/injection, schedule: Q01DX001 (ip), vehicle: saline) was 8 of 8, the survivor count (dose: 512.0 mg/kg/injection, schedule: Q01DX005 (ip), vehicle: saline) was 0 of 8 and the survivor count (dose: 512.0 mg/kg/injection, schedule: Q01DX009 (ip), vehicle: saline) was 1 of 8. For the same compound, the survivor count (dose: 512.0 mg/kg/injection, schedule: Q04DX003 (ip), vehicle: saline) was 7 of 8, the survivor count (dose: 512.0 mg/kg/injection, schedule: Q08DX002 (ip), vehicle: saline) was 8 of 8 and the survivor count (dose: 800.0 mg/kg/injection, schedule: Q08DX002 (ip), vehicle: clinical formulation) was 8 of 8. For the same compound, the survivor count (dose: 800.0 mg/kg/injection, schedule: Q08DX002 (ip), vehicle: water) was 7 of 8, the survivor count (dose: 1024.0 mg/kg/injection, schedule: Q01DX001 (ip), vehicle: saline) was 5 of 8 and the survivor count (dose: 1024.0 mg/kg/injection, schedule: Q04DX003 (ip), vehicle: saline) was 5 of 8. The survivor count (dose: 1024.0 mg/kg/injection, schedule: Q08DX002 (ip), vehicle: saline) was 5 of 8.
For COc1cc2c(cc1OC)C(OC)N(C)c1c-2ccc2cc3c(cc12)OCO3 (stereo unspecified), the survivor count (dose: 2.0 mg/kg/injection, schedule: Q01DX009 (ip), vehicle: water) was 8 of 8, the survivor count (dose: 2.0 mg/kg/injection, schedule: Q03HX008 (ip), vehicle: water) was 8 of 8 and the survivor count (dose: 4.0 mg/kg/injection, schedule: Q01DX009 (ip), vehicle: water) was 7 of 8. The survivor count (dose: 4.0 mg/kg/injection, schedule: Q01DX009 (oral), vehicle: water) was 8 of 8, the survivor count (dose: 4.0 mg/kg/injection, schedule: Q01DX009 (sc), vehicle: water) was 8 of 8 and the survivor count (dose: 4.0 mg/kg/injection, schedule: Q03HX008 (ip), vehicle: water) was 8 of 8. The survivor count (dose: 8.0 mg/kg/injection, schedule: Q01DX009 (ip), vehicle: water) was 8 of 8, the survivor count (dose: 8.0 mg/kg/injection, schedule: Q01DX009 (oral), vehicle: water) was 8 of 8 and the survivor count (dose: 8.0 mg/kg/injection, schedule: Q01DX009 (sc), vehicle: water) was 8 of 8. The survivor count (dose: 8.0 mg/kg/injection, schedule: Q03HX008 (ip), vehicle: water) was 8 of 8, the survivor count (dose: 8.0 mg/kg/injection, schedule: Q04DX003 (ip), vehicle: water) was 8 of 8 and the survivor count (dose: 16.0 mg/kg/injection, schedule: Q01DX001 (ip), vehicle: water) was 8 of 8. For the same compound, the survivor count (dose: 16.0 mg/kg/injection, schedule: Q01DX009 (ip), vehicle: water) was 8 of 8, the survivor count (dose: 16.0 mg/kg/injection, schedule: Q01DX009 (oral), vehicle: water) was 8 of 8 and the survivor count (dose: 16.0 mg/kg/injection, schedule: Q01DX009 (sc), vehicle: water) was 8 of 8. For the same compound, the survivor count (dose: 16.0 mg/kg/injection, schedule: Q03HX008 (ip), vehicle: water) was 2 of 8, the survivor count (dose: 16.0 mg/kg/injection, schedule: Q04DX003 (ip), vehicle: water) was 8 of 8 and the survivor count (dose: 16.0 mg/kg/injection, schedule: Q08DX002 (ip), vehicle: water) was 8 of 8. The survivor count (dose: 32.0 mg/kg/injection, schedule: Q01DX001 (ip), vehicle: water) was 8 of 8, the survivor count (dose: 32.0 mg/kg/injection, schedule: Q01DX009 (ip), vehicle: water) was 8 of 8 and the survivor count (dose: 32.0 mg/kg/injection, schedule: Q01DX009 (oral), vehicle: water) was 8 of 8. The survivor count (dose: 32.0 mg/kg/injection, schedule: Q01DX009 (sc), vehicle: water) was 8 of 8, the survivor count (dose: 32.0 mg/kg/injection, schedule: Q04DX003 (ip), vehicle: water) was 8 of 8 and the survivor count (dose: 32.0 mg/kg/injection, schedule: Q08DX002 (ip), vehicle: water) was 8 of 8. The survivor count (dose: 64.0 mg/kg/injection, schedule: Q01DX001 (ip), vehicle: water) was 8 of 8, the survivor count (dose: 64.0 mg/kg/injection, schedule: Q01DX009 (ip), vehicle: water) was 0 of 8 and the survivor count (dose: 64.0 mg/kg/injection, schedule: Q01DX009 (oral), vehicle: water) was 8 of 8. The survivor count (dose: 64.0 mg/kg/injection, schedule: Q01DX009 (sc), vehicle: water) was 8 of 8, the survivor count (dose: 64.0 mg/kg/injection, schedule: Q04DX003 (ip), vehicle: water) was 7 of 8 and the survivor count (dose: 64.0 mg/kg/injection, schedule: Q08DX002 (ip), vehicle: water) was 8 of 8. For the same compound, the survivor count (dose: 128.0 mg/kg/injection, schedule: Q01DX001 (ip), vehicle: water) was 4 of 8 and the survivor count (dose: 128.0 mg/kg/injection, schedule: Q08DX002 (ip), vehicle: water) was 4 of 8.
For O=[N+]([O-])c1ccc(-c2cnc(Br)c3ccccc23)cc1, the survivor count (dose: 1.0 mg/kg/injection, schedule: Q01DX001 (ip), vehicle: DMSO) was 2 of 2, the survivor count (dose: 10.0 mg/kg/injection, schedule: Q01DX001 (ip), vehicle: DMSO) was 2 of 2 and the survivor count (dose: 100.0 mg/kg/injection, schedule: Q01DX001 (ip), vehicle: DMSO) was 2 of 2.
